Results: the supplement of paper PMC4962491
± gives the standard deviation of the averaged measurements. The list shows a part of the results, in another mix than the full data. Single values are uncertain here, since repeats match poorly. Numbered stars: 1 amine (or outer) side, 2 acyl side, 3 side chain; on linkers, the order of the positions; unused ones are H or OH. Bridge positions count the residues as written; N and C are the ends. Square brackets hold non-standard residues; d marks the D form. Peptide text beside a SMILES is read from it. * marks the point of attachment. X1 = NC1=N[C@@H]([C@H](N[*:1])C(=O)[*:2])C[C@H](O)N1; ΔAla(Z-3-ureido) = NC(=O)N/C=C(\N)C(=O)O; β3hOrn = NCCC[C@H](N)CC(=O)*; Dap = NC[C@H](N)C(=O)O

Test system: FaDu
Experiment: mitochondrial oxygen consumption rate normalised to cell number, Z score over the library; higher = higher oxygen consumption (negative = OCR reduction)
Settings: treatment time 24 h, assay medium: 5 mM galactose, 5 mM pyruvate, 4 mM glutamine
Description: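 Primary screen: FaDu cells were incubated 24 h with Pharmakon 1600 / TDI oncology set compounds at 2 or 10 uM. Mitochondrial-specific OCR (basal minus 2 uM antimycin A) was measured on a Seahorse XF96 in assay medium with 5 mM galactose, 5 mM pyruvate and 4 mM glutamine, then corrected for Hoechst cell number and expressed as a Z score […]. Compounds that cut cell number by >66% were excluded. Two repeats.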

Row | SMILES | mitochondrial oxygen consumption rate normalised (2 µM) | mitochondrial oxygen consumption rate normalised (10 µM)
1 | Cc1cc2nc3c(=O)[nH]c(=O)nc-3n(CC(O)C(O)C(O)COP(=O)(O)O)c2cc1C (stereo not given) | 0.0399 ± 1.8 | 
2 | O=C(O)CSCC(=O)NC1CCSC1=O (stereo not given) | 0.505 ± 0.68 | 
3 | NCC[C@H](O)C(=O)N[C@@H]1C[C@H](N)[C@@H](O[C@H]2O[C@H](CN)[C@@H](O)[C@H](O)[C@H]2O)[C@H](O)[C@H]1O[C@H]1O[C@H](CO)[C@@H](O)[C@H](N)[C@H]1O | 0.48 ± 0.86 | 
4 | NCCC[C@H](N)CC(=O)N[C@H]1CNC(=O)[C@H]([C@H]2C[C@H](O)NC(N)=N2)NC(=O)/C(=C/NC(N)=O)NC(=O)[C@H](CO)NC(=O)[C@H](CO)NC1=O (β3hOrn-[Dap]SS[ΔAla(Z-3-ureido)][X1]; lactam 1-C) | 0.286 ± 0.044 | 
5 | C[C@H]1COc2c(N3CCN(C)CC3)c(F)cc3c(=O)c(C(=O)O)cn1c23 | -0.424 ± 0.51 | 
6 | CN(C)CCCN1c2ccccc2CCc2ccccc21 | -1.25 ± 0.2 | 
7 | NC(CO)C(=O)NNCc1ccc(O)c(O)c1O (stereo not given) | -0.338 ± 0.66 | 
8 | Fc1ccc([C@@H]2CCNC[C@H]2COc2ccc3c(c2)OCO3)cc1 | 0.699 ± 0.65 | 
9 | CN(C/C=C/C#CC(C)(C)C)Cc1cccc2ccccc12 | -0.627 ± 0.35 | 
10 | C[N+](C)(C)CCO.[Cl-] | -0.242 ± 0.44 | 
11 | O=C(Oc1cccc2cccnc12)c1ccccc1 | -0.518 ± 1.2 | 
12 | CN1CCC(OC(c2ccccc2)c2ccccc2)CC1 | -1.19 ± 0.65 | 
13 | COC(=O)C1=C(C)NC(C)=C(C(=O)OC(C)C)C1c1cccc2nonc12 (stereo not given) | 0.422 ± 0.51 | 
14 | CC(=O)SCC(Cc1ccccc1)C(=O)NCC(=O)OCc1ccccc1 (stereo not given) | 0.992 ± 1.2 | 
15 | CC1COc2c(N3CCN(C)CC3)c(F)cc3c(=O)c(C(=O)O)cn1c23 (stereo not given) | 1.27 ± 0.019 | 
16 | CN1CCN(c2cc3c(cc2F)c(=O)c(C(=O)O)cn3-c2ccc(F)cc2)CC1 | -0.0387 ± 1.1 | 
17 | O=C(O)CCCC[C@@H]1SC[C@@H]2NC(=O)N[C@@H]21 | 0.535 ± 0.21 | 
18 | CC(C)C(=O)Nc1ccc([N+](=O)[O-])c(C(F)(F)F)c1 | 1.33 ± 0.8 | 
19 | Cn1cnc([N+](=O)[O-])c1Sc1ncnc2[nH]cnc12 | -0.338 ± 0.14 | 
20 | CC(=O)Oc1cc2c(s1)CCN(C(C(=O)C1CC1)c1ccccc1F)C2 (stereo not given) | 0.0315 ± 0.58 | 
21 | OCCN1C[C@H](O)[C@@H](O)[C@H](O)[C@H]1CO | -0.643 ± 0.98 | 

Row | SMILES | mitochondrial oxygen consumption rate normalised (2 µM) | mitochondrial oxygen consumption rate normalised (10 µM)
22 | CC(=O)OCC[N+](C)(C)C | 0.593 ± 0.51 | 
23 | CCN(CC)Cc1cc(Nc2ccnc3cc(Cl)ccc23)ccc1O | 0.0326 ± 0.013 | 
24 | CCC(=O)OCC(=O)[C@@]1(OC(=O)CC)[C@@H](C)C[C@H]2[C@@H]3CCC4=CC(=O)C=C[C@]4(C)[C@@]3(Cl)[C@@H](O)C[C@@]21C | 1.02 ± 0.77 | 
25 | OC[C@H]1O[C@@H](n2cnc3c2N=CNC[C@H]3O)C[C@@H]1O [Pentostatin] | 1.08 ± 0.14 | 0.38 ± 0.31
26 | O=C(/C=C/C=C/c1ccc2c(c1)OCO2)N1CCCCC1 | 0.258 ± 0.35 | 
27 | COc1nc(N)nc2c1ncn2[C@@H]1O[C@H](CO)[C@@H](O)[C@@H]1O [Nelarabine] | 0.561 ± 0.51 | 
28 | COc1ccccc1N1CCN(CCCNc2cc(=O)n(C)c(=O)n2C)CC1 | 0.0156 ± 0.29 | 
29 | C#CCN(C)CCCOc1ccc(Cl)cc1Cl | -0.0262 ± 0.43 | 
30 | O=C(O)CN(CCN(CC(=O)O)CC(=O)O)CCN(CC(=O)O)CC(=O)O | 0.481 ± 0.11 | 
31 | CC(C)NCC(O)c1cc(O)cc(O)c1 (stereo not given) | 0.152 ± 1.4 | 
32 | C[C@H]1[C@H](OC(=O)CCC(=O)O)O[C@@H]2O[C@@]3(C)CC[C@H]4[C@H](C)CC[C@@H]1[C@@]24OO3 | 1.1 ± 0.053 | 
33 | CCC(C)n1ncn(-c2ccc(N3CCN(c4ccc(OCC5COC(Cn6cncn6)(c6ccc(Cl)cc6Cl)O5)cc4)CC3)cc2)c1=O (stereo not given) | -0.208 ± 0.73 | 
34 | Cc1cccc(Nc2ccccc2C(=O)O)c1C | -0.446 ± 0.57 | 
35 | C[n+]1ccccc1/C=N/O | -0.635 ± 0.26 | 
36 | O=C(O)CCNC(=O)c1ccc(/N=N/c2ccc(O)c(C(=O)O)c2)cc1 | -0.313 ± 0.38 | 
37 | CNCCCN1c2ccccc2CCc2ccccc21 | -0.0642 ± 0.67 | 
38 | O=C1OC(CN2CCOCC2)CN1/N=C/c1ccc([N+](=O)[O-])o1 (stereo not given) | 0.109 ± 0.11 | 
39 | CC[n+]1c(-c2ccccc2)c2cc(N)ccc2c2ccc(N)cc21 | -1.37 ± 0.39 | -2.32 ± 0.27
40 | O=C1CCC(N2C(=O)c3ccccc3C2=O)C(=O)N1 (stereo not given) [Thalidomide] | 0.792 ± 0.42 | 
41 | O=C1CCC(N2C(=O)c3ccccc3C2=O)C(=O)N1 (stereo not given) | 1.07 ± 1.8 | 
42 | CCCCc1nc(Cl)c(CO)n1Cc1ccc(-c2ccccc2-c2nnn[nH]2)cc1 | -0.0839 ± 0.9 | 

Row | SMILES | mitochondrial oxygen consumption rate normalised (2 µM) | mitochondrial oxygen consumption rate normalised (10 µM)
43 | CC1(C)S[C@@H]2[C@H](NC(=O)Cc3ccccc3)C(=O)N2[C@H]1C(=O)O | 0.945 ± 1.6 | -0.601 ± 0.075
44 | C=CCCCCCCCCC(=O)O | -0.338 ± 0.15 | 
45 | CCOc1ccc(NC(=O)CC(C)O)cc1 (stereo not given) | -0.237 ± 0.6 | 
46 | CC(=O)OCC1=C(C(=O)O)N2C(=O)[C@@H](NC(=O)Cc3cccs3)[C@H]2SC1 | 0.0388 ± 0.96 | 
47 | CCN(CC)CCNC(=O)COc1ccc(OC)cc1 | 0.641 ± 0.26 | 
48 | O=C([O-])/C=C/C(=O)[O-].[Fe+2] | 0.641 ± 0.19 | -0.129 ± 0.31
49 | CCCOc1ccc(C(=O)OCCN(CC)CC)cc1N | 0.185 ± 0.49 | 
50 | CCN(CC)CCOCCOC(=O)C(CC)(CC)c1ccccc1 | -0.915 ± 0.26 | 
51 | CC[C@@H](CO)NCCN[C@@H](CC)CO | 0.46 ± 0.21 | 
52 | C=CCOC(Cn1ccnc1)c1ccc(Cl)cc1Cl (stereo not given) | -1.3 ± 0.86 | -0.834 ± 0.055
53 | CC1(C)[C@@H](OC(=O)CCC(=O)O)CC[C@]2(C)[C@H]3C(=O)C=C4[C@@H]5C[C@@](C)(C(=O)O)CC[C@]5(C)CC[C@@]4(C)[C@]3(C)CC[C@@H]12 | 0.704 ± 0.27 | 
54 | CC(CN(C)C)CN1c2ccccc2Sc2ccccc21 (stereo not given) | 0.905 ± 0.29 | 
55 | C#C[C@]1(O)CC[C@H]2[C@@H]3CCC4=CC(=O)CC[C@@H]4[C@H]3CC[C@@]21CC | -0.913 ± 0.55 | 
56 | CC(C)CCCC(C)NC(C)C (stereo not given) | 0.23 ± 0.68 | 
57 | N=C(N)NCCN1CCCCCCC1 | -0.9 ± 1.2 | 
58 | CC(=O)OCC(=O)[C@H]1CC[C@H]2[C@@H]3CCC4=CC(=O)CC[C@]4(C)[C@H]3CC[C@]12C | -0.445 ± 0.71 | 
59 | CC(=O)N(CC(O)CN(C(C)=O)c1c(I)c(C(=O)NCC(O)CO)c(I)c(C(=O)NCC(O)CO)c1I)c1c(I)c(C(=O)NCC(O)CO)c(I)c(C(=O)NCC(O)CO)c1I (stereo not given) | -0.949 ± 0.26 | 
60 | NC(=O)NS(=O)(=O)c1ccc(N)cc1 | 0.341 ± 0.35 | 0.826 ± 1.4
61 | COc1cc(/C=C/C(=O)N2CCCCCCC2)cc(OC)c1OC | 0.574 ± 1.4 | 
62 | c1ccc(CN(CC2=NCCN2)c2ccccc2)cc1 | 0.182 ± 0.19 | 
63 | Cc1cc(-c2ccc(/N=N/c3ccc4c(S(=O)(=O)O)cc(S(=O)(=O)O)c(N)c4c3O)c(C)c2)ccc1/N=N/c1ccc2c(S(=O)(=O)O)cc(S(=O)(=O)O)c(N)c2c1O | 1.16 ± 1.9 | 1.24 ± 1

Random excerpt: 3 entries already listed
Row | SMILES | mitochondrial oxygen consumption rate normalised (2 µM) | mitochondrial oxygen consumption rate normalised (10 µM)
32 | C[C@H]1[C@H](OC(=O)CCC(=O)O)O[C@@H]2O[C@@]3(C)CC[C@H]4[C@H](C)CC[C@@H]1[C@@]24OO3 | 1.1 ± 0.053 | 
50 | CCN(CC)CCOCCOC(=O)C(CC)(CC)c1ccccc1 | -0.915 ± 0.26 | 
44 | C=CCCCCCCCCC(=O)O | -0.338 ± 0.15 | 
